The results in this text go back to paper PMC5996148.

Values joined by “and” are separate entries in the source; they are usually repeats but may differ in a detail not shown here. Equal entries are not always repeated. This is one part of the list.

What all share (experiment): protein microarray (ProtoArray v5.0), streptavidin-Alexa Fluor 647
Holding throughout (conditions): 3'-biotin; 20 mM Tris (pH 7.5), 5 mM MgCl2, 100 mM KCl, 0.1% Tween-20, A/T-rich and random oligonucleotide blockers; temperature not stated; high values mean tight binding

Assay [1] has as its system Inhibitor of growth protein 4 (human).
Assay [2] relates to Inorganic pyrophosphatase 2, mitochondrial (human).
For assay [3], the system named is Interferon alpha-1/13 (human).
Assay [4] relates to Interferon alpha-4 (human).
For assay [5], the system named is Interferon-induced guanylate-binding protein 2 (human).
Assay [6] relates to Interleukin-1 receptor antagonist protein (human).
The subject of assay [7] is Interleukin-18-binding protein (human).
Assay [8] concerns Interleukin-22 (human).
For assay [9], the system named is Interleukin-24 (human).
Assay [10] relates to Jouberin (human).

For “GGTGACAGGGGTATGGGGAGGGG [G4-2 biotinylated (Ct1)]”, the binding signal in assay [1] was -0.399 z-score; in assay [2], -0.364 z-score; in [3] it was -0.38 z-score; in [4] it was -0.391 z-score and -0.372 z-score; in [5], -0.393 z-score; in assay [6], -0.359 z-score. The binding signal in assay [7] was -0.395 z-score; in assay [8], -0.367 z-score; in [9], -0.38 z-score; in [10], 3.45 z-score.
